PubChem BioAssay AID504744 | Drosophila RNAi Screening Center | 2011
In all, the deposit lists about 23,000 reagents; shown is a random part of those with a known target gene and a result. In the full data, 98 (0.43%) are marked active. 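Only hit calls are given; the phospho-dAkt signals, z-scores and hit direction were not deposited.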 A plus sign joins genes that one reagent is predicted to hit. No sequences are given here.

Test: 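Find genes whose loss alters insulin-driven dAkt phosphorylation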 (primary screen)
System: Drosophila Kc167 cells
Knock-down reagent: long dsRNA against Drosophila genes, 250 ng dsRNA per well of a 384-well plate
Timing: 3 days of knock-down, then overnight serum-free starvation before stimulation
Challenge: bovine insulin at 387 nM for 10 minutes after 12 h without serum
Detection: 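Per-well phospho-dAkt level from an in-cell fluorescent antibody stain, divided by a DNA-dye signal; log2 residuals turned into z-scores that take cell number into account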
Rule for the call: 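Under insulin, a gene counts as a hit if the average z-score of two replicates lies above 2.5 or below -2.5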

For Smg5 (Smg5 nonsense mediated mRNA decay factor) [DRSC03124], the entry reads inactive. After knock-down of Prestin [DRSC10507], the record shows inactive. Silencing of Tom7 (Translocase of outer membrane 7) [DRSC05135] resulted in: inactive. Silencing of Tom7 (Translocase of outer membrane 7) [DRSC07113] resulted in: inactive. For CG32198 [DRSC09553], the values are inactive. CG32814 [DRSC17670] showed inactive.

Against Gr85a (Gustatory receptor 85a) [DRSC12760] the deposit lists inactive. pb (proboscipedia) [DRSC12409] gave inactive. After knock-down of pb (proboscipedia) [DRSC12629], the record shows inactive. For CG15719 [DRSC19685], the entry reads inactive. After knock-down of CG13365 [DRSC17899], the record shows inactive. LeuRS (Leucyl-tRNA synthetase) [DRSC00581] showed inactive.

With knock-down of ArfGAP1 (ADP-ribosylation factor GTPase activating protein 1) [DRSC11173], the record shows inactive. CG5177 [DRSC02824] showed inactive. Against CG15701 [DRSC06572], the values are inactive. Against CG13367 [DRSC18485] the deposit lists inactive. Against CG13367 [DRSC18486], the entry reads inactive. Against CG1172 [DRSC12182], the values are inactive.

With knock-down of CG1172 [DRSC21954], the screen gave inactive. Against alpha-Est8 (alpha-Esterase-8) [DRSC12620] the deposit lists inactive. With knock-down of Or19a (Odorant receptor 19a) [DRSC20684], the screen gave inactive. Against Ctu1 (Cytosolic thiouridylase subunit 1) [DRSC07069], the values are inactive. For CG7730 [DRSC10909] the deposit lists inactive. Depletion of CG12056 [DRSC17796] resulted in: inactive.

Silencing of CG1986 [DRSC18197] resulted in: inactive. Against Cpsf100 (Cleavage and polyadenylation specificity factor 100) [DRSC14146], the entry reads inactive. With knock-down of CG18304 [DRSC02664], the screen gave inactive. Knock-down of Nacalpha (Nascent polypeptide associated complex protein alpha subunit) [DRSC07477] gave: inactive. Silencing of btd (buttonhead) [DRSC18747] came out at: inactive. With knock-down of SMC6 (Structural maintenance of chromosomes 6) [DRSC15829], the screen gave inactive.

After knock-down of Hers (Histone gene-specific Epigenetic Repressor in late S phase) [DRSC19429] the results were inactive. Against Hers (Histone gene-specific Epigenetic Repressor in late S phase) [DRSC19676] the deposit lists inactive. For hrm (hermes) [DRSC04853], the entry reads inactive. CG15676 [DRSC04267] scored inactive. With knock-down of CG17036 [DRSC02564], the record shows inactive. CG34278 [DRSC13208] gave inactive.

For CG3815 [DRSC18324], the entry reads inactive. Knock-down of CG6293 [DRSC16011] gave: inactive. After knock-down of Mgat3 [DRSC01305], the record shows inactive. CG7879 [DRSC08600] gave inactive. For CG11398 [DRSC18625] the deposit lists inactive. With knock-down of Trpml + CG42638 [DRSC11032] the results were inactive.

Depletion of Uba5 (Ubiquitin-like activating enzyme 5) [DRSC19775] resulted in: inactive. For Dlic (Dynein light intermediate chain) [DRSC19824] the deposit lists inactive. With knock-down of AP-1gamma (Adaptor Protein complex 1, gamma subunit) [DRSC18433] the results were inactive. Silencing of Zip48C (Zinc/iron regulated transporter-related protein 48C) [DRSC06314] gave: inactive. CG10887 [DRSC14277] gave inactive. Silencing of mthl4 (methuselah-like 4) [DRSC06998] gave: inactive.

Or9a (Odorant receptor 9a) [DRSC18692] gave inactive. Against Corin [DRSC06818] the deposit lists inactive. CG42354 + CG42353 [DRSC20172] showed inactive. Silencing of mts (microtubule star) [DRSC03574] resulted in: active. CG3527 [DRSC18307] scored inactive. Silencing of Gdap2 [DRSC06789] came out at: inactive.

After knock-down of Gdap2 [DRSC06790] the results were inactive. After knock-down of LManII (Lysosomal alpha-mannosidase II) [DRSC01986], the screen gave inactive. CG15213 [DRSC10213] showed inactive.

Looked up above:
Result for Trpml + CG42638 [DRSC11032] in “call”: inactive
For “call”, Dlic (Dynein light intermediate chain) [DRSC19824] reads inactive
Cpsf100 (Cleavage and polyadenylation specificity factor 100) [DRSC14146], call → inactive
Tom7 (Translocase of outer membrane 7) [DRSC05135], call = inactive
